# Out of some 320,000 compounds screened, about 2,100 (0.66%) were called active. Inconclusive means that the source gave no clear call. Such entries were picked first, then a sample of the others. Calls follow the shape of the dose curve; as a rule, active = well fitted inhibition curve with a large enough effect in the signal ratio, with a control signal flat (not every such curve was filed as active); inconclusive = small, poorly fitted or top-dose-only effect, or effect the other way, or a change in a side signal; inactive = flat fitted curve, though single readings scatter; the % refers to the signal ratio. Potencies of inconclusive entries are doubtful fits and often do not repeat.
# Assay: qHTS Assay for Lipid Storage Modulators in Drosophila S3 Cells
# Conditions: BODIPY lipid droplet fluorescence, 18-24 h, cells fed with added oleic acid; lipid storage change, negative = inhibition: at 46.1 µM (top of the series) unless noted
# Procedure, shortened: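 Laser-scanning cytometry quantifies lipid droplet accumulation (500–530 nm total intensity; droplet/cell object ratio) in oleic acid-fed (400 uM added) Drosophila S3 cells treated with a concentration series. 20 uM Triacsin C defined 100% inhibition.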
# % is scaled to controls: 0 for no effect and ±100 for the full control effect; potency is read from the fitted curve at half-maximal effect.
SMILES,Potency,"lipid storage change, negative = inhibition"
Cc1cc(C(=O)NC2CCCC2)c2ccccc2n1,"inconclusive: 4.61 µM [activator, partial curve, poor fit]",–
COCCCNC(=O)c1c(N)n(-c2ccc3c(c2)OCO3)c2nc3ccccc3nc12,–,inconclusive: 21.1%
COc1ccc(CSc2nnc(Cc3sc(-c4ccccc4)nc3-c3ccccc3)o2)cc1,–,inconclusive: -26.7%
Cc1cccc(NNC(N)=S)c1,–,inconclusive: 24.7% [at 9.22 µM]
O=C(NCCS(=O)(=O)NCc1cccnc1)c1ccccc1,–,inconclusive: 18.2%
CCCN(CCC)CC(C)(C)NS(=O)(=O)c1ccc(Cl)cc1,"inconclusive: 0.0731 µM [falling, full curve, poor fit]",–
Cc1nc(NC(=O)c2ccco2)sc1C(=O)Nc1ccc(Br)cc1,–,inconclusive: 45.1%
Cc1ccc(-c2nc3c(c(=O)[nH]c(=O)n3Cc3ccccc3)n2Cc2ccccc2)o1,–,inconclusive: -6.1%
CCOc1ccccc1-n1c(SCC(=O)Nc2ccc(CC)cc2)nc2n[nH]c(C)c2c1=N,–,inconclusive: 9.01%
CCOc1cc(C#N)c(NC(=O)c2cccnc2)cc1OCC,–,inconclusive: 11%
COc1ccc(C(=O)c2ccc(Cl)cc2)c2ccccc12,–,inconclusive: 43.7%
O=C(N/N=C/c1ccccc1Cl)c1nc2ccc([N+](=O)[O-])cc2c(=O)[nH]1,–,inconclusive: 2.24%
Cc1nc(C)n(C)c(=O)c1-c1ccccc1,"inconclusive: 6.51 µM [rising, single point]",–
O=C(CNC(=O)c1ccc(Br)o1)NNC(=O)COc1ccccc1Cl,–,inconclusive: -6.43%
O=C(c1coc(=O)c(Br)c1)N1CCCc2ccccc21,–,inconclusive: 37.5%
Cc1csc(SCC(=O)Nc2oc(C)c3c(C)n[nH]c(=O)c23)n1,"inconclusive: 0.461 µM [rising, full curve]",–
COc1cc(C(=O)NCC(=O)OCC(=O)c2ccc[nH]2)cc(OC)c1OC,"inconclusive: 0.651 µM [falling, single point]",–
C/C=C(\C)C(=O)N[C@@H](C)CN1C2=NC[C@H](C(C)C)N2C[C@H]1Cc1ccc(OC)cc1,–,inconclusive: -22%
O=C(NCCS(=O)(=O)NCc1ccccc1Cl)c1ccc2c(c1)OCO2,–,inconclusive: -3.38%
O=C(Nc1ccc2ccccc2c1)c1ccc(Cl)cc1Cl,–,inactive
COC(=O)C(Cc1cnc(Cl)s1)(C(=O)OC)c1ccc([N+](=O)[O-])cc1[N+](=O)[O-],"inconclusive: 2.06 µM [activator, partial curve]",–
COc1ccc(-n2nc3c(c2NC(=O)c2ccc(S(=O)(=O)N4CCOCC4)cc2)CS(=O)C3)cc1 (configuration not stated),–,inconclusive: -1.29%
COc1ccc(OC)c(CCNC(=O)c2ccccc2NC(=O)C2=C(C)OCCS2)c1,–,inconclusive: -19.2%
CC(C)c1nc(-c2ccc([N+](=O)[O-])cc2)cs1,–,inconclusive: -1.89%
Cc1nc2ccccc2cc1C(=O)O,–,inconclusive: 8.4%
COc1ccc(-c2sccc2C(C)C(=O)O)cc1 (configuration not stated),–,inconclusive: -2.86%

SMILES,Potency,"lipid storage change, negative = inhibition"
Cc1ccc(C)c(S(=O)(=O)N2CCN(C(=O)c3cccnc3)CC2)c1,–,inconclusive: -10.9%
Cc1ccccc1OCc1n(CC(=O)OC2CC(C)CCC2C(C)C)c2ccccc2[n+]1C (configuration not stated),"inconclusive: 32.6 µM [cytotoxic, single point]",inconclusive: -88.9%
CCC(C)[C@H](NC(=O)N1CC(=O)Nc2ccccc21)C(=O)N[C@H](Cc1ccccc1)C(=O)O (some centres not stated),"inconclusive: 1.03 µM [activator, full curve]",–
CCN1CCN(Cc2c(C(=O)N/N=C(\C)c3ccc(Cl)c(Cl)c3)nnn2-c2nonc2N)CC1,–,inactive
Cc1ccc(F)cc1NC(=O)c1ccc(NS(=O)(=O)c2ccc(Br)s2)cc1,–,inconclusive: 47.1%
CCn1c(SCc2nc(-c3ccccc3)no2)nc2ccccc21,–,inconclusive: -2.74% [at 9.22 µM]
CCCn1c(SCC(=O)NCc2ccc(C)cc2)n[nH]c1=O,–,inconclusive: 44.3%
O=C(CSc1nnc(SCc2cccc3ccccc23)s1)Nc1ccc(C(=O)O)cc1,–,inconclusive: 1.47% [at 9.22 µM]
Cc1cc(Cl)ccc1NC(=O)CN1CCCC1,–,inconclusive: 11.9%
O=C1CSC(c2ccccc2)N1CC(O)c1ccc([N+](=O)[O-])cc1 (configuration not stated),–,inactive
CCCn1c(=N)n(CC(O)COc2ccc(C)cc2)c2ccccc21 (configuration not stated),–,inconclusive: -26.8%
COCCOC(=O)c1c(C)oc2cc(Br)c(OCC(N)=O)cc12,–,inconclusive: 19.2%
COc1cc(CCC(=O)Nc2ccc(S(=O)(=O)N3CCOCC3)cc2)cc(OC)c1OC,–,inconclusive: -80.5%
Cc1cccc(NC(=O)NCC2CCN(c3ccc(S(=O)(=O)N4CCOCC4)cc3)CC2)c1,–,inconclusive: -57.5%
O=[N+]([O-])c1ccc(-c2nnc(S)n2-c2ccccc2)cc1,–,inconclusive: 33.2%
CC(=O)Nc1ccc(SCC(=O)NCCc2ccc(F)cc2)cc1,–,inconclusive: 40.7%
O=C(N/N=C/c1ccncc1)c1cccc(NC(=O)c2ccccc2Cl)c1,–,inconclusive: 19.9%
Cc1cc(NC(=O)C2CC=CCC2C(=O)O)no1 (configuration not stated),"inconclusive: 6.51 µM [falling, single point]",–
COc1ccc(CNC(=O)Nc2ccc(OC)cc2)cc1,–,inconclusive: -27.6%
O=C1CC(SC(=NCc2ccc3c(c2)OCO3)Nc2ccccc2)C(=O)N1 (configuration not stated),"inconclusive: 0.92 µM [activator, partial curve]",–
CCOC(=O)c1c(CN2CCCCC2)oc2ccc(OC)cc12,–,inconclusive: 19.2%
Cc1cccc(NC(=O)CC2C(=O)NCCN2C(=O)Nc2ccc(Cl)cc2)c1 (configuration not stated),"inconclusive: 25.9 µM [falling, single point]",–
COc1ccc(Cl)cc1NC(=O)CN(C)C(=O)c1cccc(-n2cnnn2)c1,"inconclusive: 2.91 µM [activator, single point]",–
NC(=O)NC(=O)COC(=O)c1sc2ccccc2c1Cl,"inconclusive: 0.58 µM [falling, full curve]",–
COc1ccc(NC(=O)c2cccc(S(=O)(=O)Nc3ccc(Br)cc3)c2)cn1,"inconclusive: 16.4 µM [falling, single point]",–
CC(=O)c1cc2c(cc1N/C(=N/S(=O)(=O)c1ccccc1)c1ccc(Cl)cc1)OCO2,–,inconclusive: 14.1%

SMILES,Potency,"lipid storage change, negative = inhibition"
CN1/C(=C/C2CC(=O)N(c3ccc([N+](=O)[O-])cc3)C2=O)C(C)(C)c2ccccc21 (configuration not stated),"inconclusive: 4.61 µM [activator, full curve]",–
Cc1ccc(S(=O)(=O)NC(=O)c2ccc(-c3ccc(C)c4ccccc34)o2)cc1,–,inconclusive: 7.9%
C=CCn1c(COc2ccc(CC)cc2)nnc1SC/C(O)=C(\C#N)c1nc2ccccc2[nH]1,"inconclusive: 1.84 µM [rising, partial curve]",–
COc1ccc(/C=C(\NC(=O)c2ccc(OC)cc2)C(=O)Nc2ccccc2C(=O)O)cc1,"inconclusive: 29.1 µM [activator, single point]",–
O=C(NCCc1c[nH]c2ccccc12)OCCCCOC(=O)NCCc1c[nH]c2ccccc12,"inconclusive: 16.4 µM [falling, single point]",–
COc1ccccc1Nc1nc(N)nc(CSc2nnc(C)s2)n1,–,inconclusive: 2.63%
Cc1cc(C)nc(N(C#N)C(C)C(=O)N(C)C)n1 (configuration not stated),–,inconclusive: 15.1%
CCOc1ccccc1NC(=O)COC(=O)C1CC(=O)N(c2c(C)cccc2C)C1 (configuration not stated),"inconclusive: 0.0058 µM [falling, full curve, poor fit]",–
CCOC(=O)c1ccc(S(=O)(=O)N2CCN(CC(=O)NC(=O)NC3CCCCC3)CC2)cc1,–,inconclusive: 20.3%
Cc1nc(CN2CCN(C(=O)c3ccc(Br)cc3)CC2)cs1,–,inconclusive: -0.681%
Cc1cc(C)c(OCC(=O)Nc2nc(-c3ccccn3)cs2)c(C)c1,–,inactive
CC(C)(C)NC(=O)CSc1nnc(C2CC2)n1-c1ccccc1,–,inconclusive: 3.52%
O=C(Nc1ccon1)c1ccc(S(=O)(=O)N2CCOCC2)cc1,–,inconclusive: -20.5%
CC(=O)Nc1ccc(S(=O)(=O)N2CCC(NC(=O)C(Cc3ccc(C)cc3)NC(C)=O)CC2)cc1 (configuration not stated),–,inconclusive: 17.8%
O=C(C1CCCO1)N1CCN(C(=S)Nc2ccc(Cl)c(Cl)c2)CC1 (configuration not stated),–,inconclusive: 5.87%
CCn1c(CSc2nnc3ccccn23)nc2cc(C(=O)O)ccc21,–,inconclusive: -0.586%
CCN1CCN(S(=O)(=O)c2ccc(Cl)c(C(=O)NC3CCCC3)c2)CC1,–,inconclusive
CCCn1c(=O)c(C(=O)Nc2nnc(CC)s2)c(O)c2ccccc21,"inconclusive: 3.66 µM [falling, full curve]",–
CC(C)C(c1nnnn1CCc1ccccc1)N1CCN(C(=O)c2ccco2)CC1 (configuration not stated),–,inconclusive: 60.2%
O=C(Cc1csc(Nc2nc(=S)[nH]c3ccccc23)n1)N1CCN(c2cccc(Cl)c2)CC1,–,inconclusive: 42.4%
C=CCN1C(=O)S/C(=C\c2ccc(N3CCOCC3)cc2C)C1=O,"inconclusive: 6.51 µM [activator, partial curve]",–
COc1ccccc1Oc1ccc(S(=O)(=O)N2CCCC2)cc1,–,inconclusive: 62.8%
O=Cc1ccc(N2N=C(c3ccccc3)CC2c2ccccc2)cc1 (configuration not stated),–,inactive
Cn1cc(CN2CCC(n3nccc3NC(=O)c3ccccc3Cl)CC2)cn1,"inconclusive: 4.61 µM [falling, single point]",–

# A different layout for five compounds above:
SMILES | Potency | lipid storage change, negative = inhibition
Cc1ccc(S(=O)(=O)NC(=O)c2ccc(-c3ccc(C)c4ccccc34)o2)cc1 | – | inconclusive: 7.9%
C=CCn1c(COc2ccc(CC)cc2)nnc1SC/C(O)=C(\C#N)c1nc2ccccc2[nH]1 | inconclusive: 1.84 µM [rising, partial curve] | –
COc1ccccc1Nc1nc(N)nc(CSc2nnc(C)s2)n1 | – | inconclusive: 2.63%
CCn1c(CSc2nnc3ccccn23)nc2cc(C(=O)O)ccc21 | – | inconclusive: -0.586%
O=Cc1ccc(N2N=C(c3ccccc3)CC2c2ccccc2)cc1 (configuration not stated) | – | inactive

# Source: PubChem BioAssay AID2685 (National Center for Advancing Translational Sciences (NCATS), 2010)
